These are yes or no findings as the source states them, for the method shown. Binding seen in cells or lysates may run through a third protein. Some results given as binding are weak or reduced against the parent protein; the word gives no strength.
Legend:
Assay in all cases: co-IP; HEK293 FLP-in T-Rex cells, Tet induction 1 µg/ml 24 hr; lysate in RIPA buffer, 1 mg protein, V5-Trap agarose beads 2 hr at 4 °C, four RIPA washes, western blot; also in cells treated with siRNA to endogenous BICD2
[1] = target: full-length BICD2 tagged on the C-terminus with mini-TurboID (BICD2-mTrbo) (human) (UniProt Q8TD16)
[2] = target: BICD2_R694C-mTrbo (human) (UniProt Q8TD16)
[3] = target: BICD2_R747C-mTrbo (human) (UniProt Q8TD16)
[4] = target: BICD2_N188T-mTrbo (human) (UniProt Q8TD16)

By UniProt entry, the sequences of proteins in these tests, tags left out. Where a name states a change or a piece, a line headed by the entry shows the natural chain unless it says otherwise.
UniProt Q8TD16: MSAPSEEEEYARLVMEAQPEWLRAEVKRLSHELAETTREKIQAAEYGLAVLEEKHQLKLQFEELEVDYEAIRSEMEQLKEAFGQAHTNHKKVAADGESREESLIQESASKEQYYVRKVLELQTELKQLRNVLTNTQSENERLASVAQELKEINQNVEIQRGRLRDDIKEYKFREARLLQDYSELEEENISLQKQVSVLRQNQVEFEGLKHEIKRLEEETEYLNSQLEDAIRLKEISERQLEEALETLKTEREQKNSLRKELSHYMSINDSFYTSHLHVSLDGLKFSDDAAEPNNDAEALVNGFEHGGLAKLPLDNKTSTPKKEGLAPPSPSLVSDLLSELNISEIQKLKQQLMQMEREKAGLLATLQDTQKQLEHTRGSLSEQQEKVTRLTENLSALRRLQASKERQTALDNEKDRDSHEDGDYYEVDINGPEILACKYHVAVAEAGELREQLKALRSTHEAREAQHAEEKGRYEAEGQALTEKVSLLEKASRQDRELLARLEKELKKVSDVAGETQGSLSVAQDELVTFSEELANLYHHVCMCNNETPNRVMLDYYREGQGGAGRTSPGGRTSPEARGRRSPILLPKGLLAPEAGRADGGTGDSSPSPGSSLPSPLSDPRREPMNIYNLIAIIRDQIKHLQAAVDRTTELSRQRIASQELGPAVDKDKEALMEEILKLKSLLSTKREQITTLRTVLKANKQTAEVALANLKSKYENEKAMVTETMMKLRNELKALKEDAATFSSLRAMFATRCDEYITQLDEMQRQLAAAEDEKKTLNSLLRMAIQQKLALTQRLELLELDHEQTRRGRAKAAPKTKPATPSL
UniProt Q14203: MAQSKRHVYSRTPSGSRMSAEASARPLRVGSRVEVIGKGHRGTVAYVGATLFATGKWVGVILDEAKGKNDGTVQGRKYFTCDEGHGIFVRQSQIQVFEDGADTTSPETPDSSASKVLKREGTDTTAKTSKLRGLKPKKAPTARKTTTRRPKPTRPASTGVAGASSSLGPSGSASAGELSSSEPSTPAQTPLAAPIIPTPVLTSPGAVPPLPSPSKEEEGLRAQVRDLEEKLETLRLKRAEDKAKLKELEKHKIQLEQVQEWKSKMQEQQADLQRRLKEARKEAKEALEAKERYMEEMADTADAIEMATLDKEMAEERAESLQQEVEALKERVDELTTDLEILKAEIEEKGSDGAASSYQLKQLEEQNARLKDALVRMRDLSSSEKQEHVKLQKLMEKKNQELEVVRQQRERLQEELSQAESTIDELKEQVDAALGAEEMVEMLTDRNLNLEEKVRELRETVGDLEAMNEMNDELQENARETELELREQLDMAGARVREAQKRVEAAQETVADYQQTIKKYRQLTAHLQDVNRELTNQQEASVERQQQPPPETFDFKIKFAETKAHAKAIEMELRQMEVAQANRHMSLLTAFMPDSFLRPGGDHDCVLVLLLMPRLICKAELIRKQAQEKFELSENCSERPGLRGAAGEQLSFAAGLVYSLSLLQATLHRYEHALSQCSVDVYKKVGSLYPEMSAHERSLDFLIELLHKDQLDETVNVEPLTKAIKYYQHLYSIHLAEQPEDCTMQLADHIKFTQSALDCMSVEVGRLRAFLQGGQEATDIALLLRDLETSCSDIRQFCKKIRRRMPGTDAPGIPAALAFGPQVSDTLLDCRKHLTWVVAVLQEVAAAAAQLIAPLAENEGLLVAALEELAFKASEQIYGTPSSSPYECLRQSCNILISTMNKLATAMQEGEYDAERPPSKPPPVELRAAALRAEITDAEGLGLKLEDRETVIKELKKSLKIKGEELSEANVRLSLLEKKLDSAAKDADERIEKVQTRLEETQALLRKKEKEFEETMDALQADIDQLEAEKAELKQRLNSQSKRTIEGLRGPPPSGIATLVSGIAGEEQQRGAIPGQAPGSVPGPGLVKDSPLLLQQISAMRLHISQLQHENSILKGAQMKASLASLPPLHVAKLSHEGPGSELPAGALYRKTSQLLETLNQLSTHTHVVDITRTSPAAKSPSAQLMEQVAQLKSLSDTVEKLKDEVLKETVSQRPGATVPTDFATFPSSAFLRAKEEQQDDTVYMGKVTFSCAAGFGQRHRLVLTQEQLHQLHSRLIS
UniProt O14576: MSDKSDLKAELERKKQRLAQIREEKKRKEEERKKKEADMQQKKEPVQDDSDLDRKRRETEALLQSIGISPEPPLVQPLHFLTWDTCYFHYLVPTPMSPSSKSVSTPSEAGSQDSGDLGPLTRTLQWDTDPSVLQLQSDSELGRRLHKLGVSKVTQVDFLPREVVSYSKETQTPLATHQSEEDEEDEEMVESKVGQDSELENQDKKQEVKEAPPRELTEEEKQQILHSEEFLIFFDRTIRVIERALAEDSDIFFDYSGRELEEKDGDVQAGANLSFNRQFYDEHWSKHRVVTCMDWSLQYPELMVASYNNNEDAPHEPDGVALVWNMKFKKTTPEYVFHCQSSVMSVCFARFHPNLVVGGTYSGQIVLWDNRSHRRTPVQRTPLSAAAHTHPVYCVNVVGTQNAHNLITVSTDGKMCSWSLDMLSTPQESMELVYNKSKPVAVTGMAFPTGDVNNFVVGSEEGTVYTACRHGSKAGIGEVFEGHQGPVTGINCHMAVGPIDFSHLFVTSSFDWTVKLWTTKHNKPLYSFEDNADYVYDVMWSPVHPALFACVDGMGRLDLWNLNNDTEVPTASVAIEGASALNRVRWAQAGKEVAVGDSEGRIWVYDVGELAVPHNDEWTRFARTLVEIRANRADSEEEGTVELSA
UniProt P20340: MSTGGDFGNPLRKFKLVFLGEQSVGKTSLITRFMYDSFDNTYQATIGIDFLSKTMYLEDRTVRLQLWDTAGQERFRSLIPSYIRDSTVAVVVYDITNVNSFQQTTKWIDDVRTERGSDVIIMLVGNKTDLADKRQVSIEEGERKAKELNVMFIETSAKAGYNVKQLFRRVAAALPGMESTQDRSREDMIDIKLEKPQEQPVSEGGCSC

Measured: binding

Dynactin1/p150 Glued (DCTN1) (from UniProt Q14203 1-1278)
binds: all assays above

Dynein intermediate chain (DYNC1I1) (from UniProt O14576 1-645)
binds: all assays above

GTP-locked RAB6A (GFP-RAB6A Q72L) (from UniProt P20340 1-208)
binds: [1]
